These are yes or no findings as the source states them, for the method shown.
Target: FrpC_(1-414), the N-terminal domain of FrpC (Neisseria meningitidis) (UniProt P55127)
Experiment: SEC; Superdex 200 HR column; free proteins and an equimolar mixture of purified FrpD and FrpC_(1-414); both purified

B1: FrpC_(1-414), the N-terminal domain of FrpC (domain or fragment, UniProt P55127 1-414)
chain: MNEGEVVLTPEQIQTLRGYASRGDTYGGWRYLANLGDRYADNAAAIVGKDTNLNGLNLWMKKGVENLWDDTVGKKTRLEKFDRVALQHFSQYVDLINKNNGRLPNTSEIERSYYKAVTYHGVSSSAAIDLVINRSLPDMADGYWALGLGIEAERIHNEQAVNNPNGSERDNRKQLISALDKGFDGSFKEKHFTFLQSVMMDLTKLGVEYTIDGWQKIGGWGNGIINDLYKSVVKREWTGIFEIVNNNIKQGNEAFKNEINSLVHDMKAAGKEFGDDLNTQWNNLTQAAEIIYNDIVDNTSQGIEKGVKAIKELSEKMKNAASDLADGSAEKAKQVVEDLAQAAKEAYENAKSTAEKAAQAAREFFKGLPSFKDLAEKFRDLFPNPEGWIDDGHQCFAPWVKETKKRNGKYHVYD
B1 was tested, and the binding was “no binding”.

— paper PMC5233953
